Measured values reported in paper PMC12374587.

Chains of the proteins cited; added tags and fusions are not shown.
UniProt P07355, whole entry: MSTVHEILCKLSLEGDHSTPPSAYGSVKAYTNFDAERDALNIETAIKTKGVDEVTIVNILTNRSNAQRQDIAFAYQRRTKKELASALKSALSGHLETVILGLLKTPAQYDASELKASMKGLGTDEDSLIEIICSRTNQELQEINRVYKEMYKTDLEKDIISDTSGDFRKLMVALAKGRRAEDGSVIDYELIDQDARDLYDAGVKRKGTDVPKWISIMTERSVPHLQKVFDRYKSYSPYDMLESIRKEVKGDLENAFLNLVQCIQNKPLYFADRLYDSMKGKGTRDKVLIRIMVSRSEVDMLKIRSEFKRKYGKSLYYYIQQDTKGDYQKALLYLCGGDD

Columns and labels:
GST-ANXA2 (Annexin A2) [1] = target: GST-ANXA2 (Annexin A2) (UniProt P07355); test: EMSA; conditions: 2 nM biotin-miR-150-3p; EMSA: Thermo Fisher kit, probes prepared in 5x TBE, room temperature, 20 min; recombinant protein; protein details: GST; letters put together from the description
[2] = system: ANXA2, endogenous, melanoma cell lysate; test: pull-down (streptavidin beads, Western blot); conditions: melanoma cell lysate; lysate pull-down: RIP buffer, 4 °C, 4 h; salt and pH not stated; protein in an extract; letters put together from the description
GST-ANXA2 (Annexin A2) [3] = target: GST-ANXA2 (Annexin A2) (UniProt P07355); test: pull-down (streptavidin beads, Western blot); conditions: lysate pull-down: RIP buffer, 4 °C, 4 h; salt and pH not stated; recombinant protein; protein details: GST; letters put together from the description

Measured: binding result

CUGGUACAGGCCUGGGGGACAG [miR-150-3p]
binds: all assays above

For at least one entry, the source does not settle the construct or the ends of the probe. For part of these data: Results from cells or extracts need not show a direct contact.
